Data from patent US11819019B2, “Protein-free semen cryopreservation” (University of Saskatchewan, priority 2017, dated 2023).
Entries after “also recorded” stand apart in the source; their conditions may differ.

Tested on: bull sperm
Test: Internalization of cell penetrating peptides in fresh bull sperm, microscopy and flow cytometry (Example 8)
Type: cell-based
Conditions: for binding to and penetration of fresh bull sperm: fluorescent-labelled peptide, FIGS. 10-11

Row | Substance | binding to and penetration of fresh bull sperm | uptake by live sperm, SS31 vs mTP4 (flow cytometry, FIG. 11)
1 | DMT-D-MWWRRSRTNSLRYT [mTP4] | bind with live sperm; also recorded: penetrated the fresh sperm | –
2 | D-Arg-DMT-Lys-Phe [SS31] | bind with live sperm; also recorded: penetrated the fresh sperm | significantly higher than mTP4
